Part of at least one peptide drawing is inferred or uncertain, most often the ends. Where no end group is shown, it is not given here.
Target: T1, subtilisin E (Bacillus subtilis, UniProt P04189)
T1 construct: 77 residues for the amino-terminal pro-peptide plus 275 residues for the mature subtilisin; made in house
T1 sequence (P04189 107-381): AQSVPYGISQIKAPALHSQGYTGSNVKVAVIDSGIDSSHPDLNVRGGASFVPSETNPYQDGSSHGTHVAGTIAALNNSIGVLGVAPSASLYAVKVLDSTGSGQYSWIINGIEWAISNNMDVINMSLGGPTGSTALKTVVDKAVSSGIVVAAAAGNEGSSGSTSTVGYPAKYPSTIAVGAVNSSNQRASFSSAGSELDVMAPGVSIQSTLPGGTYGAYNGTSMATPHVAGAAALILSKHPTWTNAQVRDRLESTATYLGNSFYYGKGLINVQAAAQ
Test: Competitive inhibition of subtilisin E by synthetic pro-peptides
Type: biochemical
Description: 5. The synthetic pro-peptide is able to specifically bind to the active center of subtilisin.

| Sequence | Specific binding to the active center of subtilisin E |
| --- | --- |
| AGKSSTEKKYIVGFKQTMSAMSSAKKKDVISEKG [-44 to -77] | unable to specifically bind |
| GKVQKQFKYVNAAAATLDEKAVKELKKDPSVAYVEEDHIAHEY [-1 to -43] | unable to specifically bind |

Source: patent US5719021A, “Protein activation” (University of Medicine and Dentistry of New Jersey, dated 1998)
